# PubChem BioAssay AID1508588, Peter MacCallum Cancer Centre – 2020
# Test: 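Knock-downs boosting vemurafenib effects on melanoma cell growth or lactate release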 (primary screen)
# System: human WM266.4 melanoma cells (BRAF V600 mutant)
# Reagent: siRNA pool against human genes, 40 nM
# Time to read-out: 96 h from transfection to read-out
# Challenge: vemurafenib 300 nM (about IC25), added 48 h after transfection, for 48 h; comparison arm got DMSO vehicle only
# Measured: 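Ratios to non-targeting siRNA for cell gain, counted as DAPI nuclei after minus before drug and averaged over two replicates, and for absorbance-read medium lactate per cell; both binned into fold-change classes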
# Scale: cell gain with vemurafenib: higher = more cell gain than with non-targeting siRNA; lactate per cell with vemurafenib: higher = more lactate made per cell
# Active means: 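a knock-down counts as enhancing when its fold-change classes with vehicle and with vemurafenib, taken together, show a stronger drug effect on cell gain or lactate per cell; exact class pairs not stated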
# Meaning of the calls: active = enhances vemurafenib effect; inactive = no enhancement seen
# Here is an unselected part of about 18,000 deposited reagents. 790 of all reagents (4.4%) count as active. 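Calls rest on a combination of fold-change classes in drug and vehicle arms, not all shown here.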 A number with no mark means an inactive call.
gene,cell gain with vemurafenib,lactate per cell with vemurafenib
S100Z (S100 calcium binding protein Z),0.58,0.86
RFX3 (regulatory factor X3),0.6,1.05
SMC1B (structural maintenance of chromosomes 1B),0.88,0.82
DSC1 (desmocollin 1),0.79,0.76
GUCD1 (guanylyl cyclase domain containing 1),0.81,1.36
THBS4 (thrombospondin 4),0.58,1.62
ANKRD34B (ankyrin repeat domain 34B),0.97,0.28
WARS1 (tryptophanyl-tRNA synthetase 1),0.7,1.24
TMEM86A (transmembrane protein 86A),0.44,1.32
NHS (NHS actin remodeling regulator),0.54,0.76
TCEA1 (transcription elongation factor A1),0.65,0.57
GPAT4 (glycerol-3-phosphate acyltransferase 4),0.36,1.14
SERPINI2 (serpin family I member 2),0.49,1.54
RBL2 (RB transcriptional corepressor like 2),0.95,0.51
NME1 (NME/NM23 nucleoside diphosphate kinase 1),1.1,1.21
PANK3 (pantothenate kinase 3),0.33,0.8
MGST3 (microsomal glutathione S-transferase 3),0.62 (active),0.42
GPR75 (G protein-coupled receptor 75),0.81,0.74
TOR4A (torsin family 4 member A),0.65,0.98
ZCCHC13 (zinc finger CCHC-type containing 13),1.09,0.9

Records listed so far whose target name starts with S or s:
gene,cell gain with vemurafenib,lactate per cell with vemurafenib
S100Z (S100 calcium binding protein Z),0.58,0.86
SMC1B (structural maintenance of chromosomes 1B),0.88,0.82
SERPINI2 (serpin family I member 2),0.49,1.54

The results go on:
gene,cell gain with vemurafenib,lactate per cell with vemurafenib
NGB (neuroglobin),0.2,0.92
ZNF285 (zinc finger protein 285),0.85,0.6
SIRAL2 (SIR2 antiphage like 2),0.36,1.11
MIA (MIA SH3 domain containing),1.03,0.63
TBCCD1 (TBCC domain containing 1),0.14,1.76
DDX56 (DEAD-box helicase 56),0.61,1.06
CCNB2 (cyclin B2),0.28,0.98
RPS27A (ribosomal protein S27a),-0.02,1.52
ZNF140 (zinc finger protein 140),0.56,0.68
CNGA3 (cyclic nucleotide gated channel subunit alpha 3),0.14,1.09
PLA2G3 (phospholipase A2 group III),0.49,1.16
HRCT1 (histidine rich carboxyl terminus 1),0.74,1.08
MSI1 (musashi RNA binding protein 1),0.62,0.59
PPP3CC (protein phosphatase 3 catalytic subunit gamma),0 (active),0.16
TRIM38 (tripartite motif containing 38),0.49,1.25
CSDE1 (cold shock domain containing E1),0.9,0.46
CLPTM1 (CLPTM1 regulator of GABA type A receptor forward trafficking),0.39,0.46
MRTFB (myocardin related transcription factor B),0.54,0.46
ZFHX4 (zinc finger homeobox 4),0.68,0.87
PTX4 (pentraxin 4),0.6,0.72
SLC4A4,0.9,1.08
CD79B (CD79b molecule),0.83,1.02
MRPS21 (mitochondrial ribosomal protein S21),0.26,1.08
TRMT61A (tRNA methyltransferase 61A),1,0.68
"IWS1 (interacts with SUPT6H, CTD assembly factor 1)",0.77,0.47
TNFRSF6B (TNF receptor superfamily member 6b),0.47,0.76
KCNN3 (potassium calcium-activated channel subfamily N member 3),0.34,0.75
HIC1 (HIC ZBTB transcriptional repressor 1),0.52,1.57
CDCP2 (CUB domain containing protein 2),0.82,1.08
FBLIM1 (filamin binding LIM protein 1),0.75,0.66
NRG4 (neuregulin 4),0.42,1.14
MTFR1L (mitochondrial fission regulator 1 like),0.33,1.25
CIMAP2 (ciliary microtubule associated protein 2),0.45,1.73
JDP2 (Jun dimerization protein 2),0.38,1.58
UBE3B (ubiquitin protein ligase E3B),0.62,1.03
MEGF6 (multiple EGF like domains 6),0.66,1.12
BMPR1A (bone morphogenetic protein receptor type 1A),0.43,1.33
